From US20110003753A1, “COMPOSITIONS AND METHODS FOR DISRUPTING THE FUNCTION OF THE TRANSCRIPTIONAL REPRESSOR COMPONENT Sin3A-PAH2 DOMAIN TO INDUCE DIFFERENTIATION AND GROWTH INHIBITION IN BREAST CANCER” (SAMUEL WAXMAN CANCER RESEARCH FOUNDATION, priority 2009, published 2011)
No constants are given. Whether binding was seen depends on the method and setting. Binding seen in cells or lysates may run through a third protein. Some binding calls cover weakened binding; strength is not graded here. Where a sequence is shown, tags or fusion partners need not be part of it.

Chains of the proteins cited; added tags and fusions are not shown.
UniProt Q05195: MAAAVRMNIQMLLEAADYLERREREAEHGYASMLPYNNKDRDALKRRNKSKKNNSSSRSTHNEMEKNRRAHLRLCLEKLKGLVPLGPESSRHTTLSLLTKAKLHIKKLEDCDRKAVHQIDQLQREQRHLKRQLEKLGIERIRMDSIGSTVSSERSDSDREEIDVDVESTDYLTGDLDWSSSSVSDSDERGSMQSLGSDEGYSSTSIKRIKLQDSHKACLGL

What was measured:
[1] = biological target: T1, GST-Sin3A PAH2 (Sin3A PAH2 domain, amino acids 306-450, expressed in E. coli as a GST fusion) (UniProt Q60520); test: GST pull-down, 35S autoradiography (FIG. 2A, left panel)
T1 sequence (looked up): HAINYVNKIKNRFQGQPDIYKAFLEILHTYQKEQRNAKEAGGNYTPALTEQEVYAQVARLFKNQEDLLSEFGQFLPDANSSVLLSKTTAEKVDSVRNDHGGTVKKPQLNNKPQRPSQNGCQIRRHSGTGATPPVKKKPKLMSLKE

[2] = biological target: T1, GST-Sin3A PAH2 (Sin3A PAH2 domain, amino acids 306-450, expressed in E. coli as a GST fusion); test: GST pull-down, Western blot (FIG. 2A, right panel)

Substance | binding [1] | binding [2]
35S-methionine labeled in vitro translated MAD (from UniProt Q05195 1-221) | binds | 
MAD immunoprecipitated from MDA-MB-231 cell lysates (from UniProt Q05195 1-221) |  | binds
